Results as given in PMC7803464.
Results are given in words; binding and its absence hold for the method and conditions named. Binding seen in cells or lysates may run through a third protein. Where a sequence is shown, tags or fusion partners need not be part of it.

By UniProt entry, the sequences of proteins in these tests, tags left out.
UniProt P53350: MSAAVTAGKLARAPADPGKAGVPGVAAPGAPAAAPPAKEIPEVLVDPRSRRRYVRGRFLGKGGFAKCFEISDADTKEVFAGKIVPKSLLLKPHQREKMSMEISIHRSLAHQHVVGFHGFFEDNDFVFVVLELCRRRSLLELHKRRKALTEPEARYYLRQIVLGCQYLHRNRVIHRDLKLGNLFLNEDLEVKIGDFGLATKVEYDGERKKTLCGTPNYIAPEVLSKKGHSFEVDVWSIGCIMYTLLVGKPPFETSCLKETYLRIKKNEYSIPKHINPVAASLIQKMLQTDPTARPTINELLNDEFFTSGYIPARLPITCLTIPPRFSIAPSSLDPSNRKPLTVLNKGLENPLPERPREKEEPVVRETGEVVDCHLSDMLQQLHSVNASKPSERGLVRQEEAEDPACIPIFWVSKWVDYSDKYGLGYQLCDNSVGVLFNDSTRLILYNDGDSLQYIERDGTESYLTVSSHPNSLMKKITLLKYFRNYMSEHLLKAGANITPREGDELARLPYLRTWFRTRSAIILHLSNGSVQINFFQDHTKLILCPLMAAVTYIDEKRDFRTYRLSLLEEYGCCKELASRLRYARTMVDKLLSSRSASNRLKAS

Target: T1, Flag–astrin S110A/T111A (UniProt Q96R06)
T1 sequence: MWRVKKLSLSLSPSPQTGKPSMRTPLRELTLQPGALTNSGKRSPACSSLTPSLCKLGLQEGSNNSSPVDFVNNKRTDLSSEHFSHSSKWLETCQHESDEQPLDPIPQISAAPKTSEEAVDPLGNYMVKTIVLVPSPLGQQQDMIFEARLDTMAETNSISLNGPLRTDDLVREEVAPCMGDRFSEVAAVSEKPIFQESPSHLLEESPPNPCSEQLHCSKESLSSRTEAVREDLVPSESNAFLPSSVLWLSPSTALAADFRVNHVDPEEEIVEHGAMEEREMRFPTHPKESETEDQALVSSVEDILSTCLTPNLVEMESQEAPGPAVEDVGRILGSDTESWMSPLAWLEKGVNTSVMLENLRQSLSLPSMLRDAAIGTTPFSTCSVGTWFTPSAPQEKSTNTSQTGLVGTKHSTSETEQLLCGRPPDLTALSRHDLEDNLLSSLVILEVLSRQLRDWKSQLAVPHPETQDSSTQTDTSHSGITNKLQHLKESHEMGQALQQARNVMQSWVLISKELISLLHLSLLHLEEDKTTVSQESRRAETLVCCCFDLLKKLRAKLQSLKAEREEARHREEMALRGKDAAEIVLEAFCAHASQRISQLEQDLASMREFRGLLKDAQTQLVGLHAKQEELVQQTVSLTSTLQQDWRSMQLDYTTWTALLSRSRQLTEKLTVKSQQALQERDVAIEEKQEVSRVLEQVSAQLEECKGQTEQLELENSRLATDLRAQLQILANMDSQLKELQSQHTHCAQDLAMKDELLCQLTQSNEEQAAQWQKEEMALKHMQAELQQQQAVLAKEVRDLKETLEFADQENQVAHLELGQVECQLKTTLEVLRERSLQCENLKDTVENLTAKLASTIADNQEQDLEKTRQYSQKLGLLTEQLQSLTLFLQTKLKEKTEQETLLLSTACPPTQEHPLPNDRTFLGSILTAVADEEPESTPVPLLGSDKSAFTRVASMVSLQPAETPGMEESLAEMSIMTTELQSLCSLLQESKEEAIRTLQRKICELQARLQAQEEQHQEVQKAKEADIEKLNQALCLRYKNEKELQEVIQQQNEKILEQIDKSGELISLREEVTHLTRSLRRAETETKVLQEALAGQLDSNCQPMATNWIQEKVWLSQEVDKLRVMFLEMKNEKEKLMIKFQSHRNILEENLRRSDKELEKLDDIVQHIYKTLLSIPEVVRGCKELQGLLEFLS
Test: co-IP; Flag-astrin constructs transiently transfected into HEK293T cells, arrested with 10 µM STLC for 14 h, mitotic shake-off, lysis in 50 mM Tris-HCl pH 8.0, 150 mM NaCl, 1% IGEPAL; FLAG-agarose beads; blot for Plk1 (Fig. 1F)

Polo-like kinase 1 (from UniProt P53350 1-603) (enzyme)
binding: no binding
